Reference: PubChem BioAssay AID2685 (National Center for Advancing Translational Sciences (NCATS), 2010)
This is one part of the list. Further columns of the screen follow, without active or inactive calls. Compounds called inactive in the main read-out are mostly missing here. The note in brackets gives the kind of curve behind each potency; many fits are weak.

Assay: qHTS Assay for Lipid Storage Modulators in Drosophila S3 Cells;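 on cell number change: cells counted by Cell Tracker Red CMTPX staining in the red channel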
Conditions: BODIPY lipid droplet fluorescence, 18-24 h; for cell number change: measured here: cell count max response, cells fed with added oleic acid
Summary of the method: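 Laser-scanning cytometry quantifies lipid droplet accumulation (500–530 nm total intensity; droplet/cell object ratio) in oleic acid-fed (400 uM added) Drosophila S3 cells treated with a concentration series. 20 uM Triacsin C defined 100% inhibition.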

[1] = measured here: cell number channel AC50, cells fed with added oleic acid
[2] = measured here: lipid fluorescence (Fed channel) AC50, cells fed with added oleic acid

Row | SMILES | cell number change [%] | AC50 [1] | AC50 [2]
1 | Cc1ccnn1Cc1cc(C(=O)O)c2ccccc2n1 | 1.19 | 4.11 µM [falling, partial curve] | –
2 | Cc1ccc(NC(=O)c2noc3c2CCc2ccccc2-3)cc1 | 93.5 | 1.84 µM [rising, full curve] | 23.1 µM [rising, partial curve]
3 | O=C(CSc1nnnn1Cc1ccccc1)NC1CCCCC1 | -35.3 | 2.91 µM [falling, single point] | –
4 | Cc1ccccc1NS(=O)(=O)c1ccc(NC(=O)N2CCCCC2)cc1 | -46.4 | 25.9 µM [falling, partial curve] | –
5 | CCOC(=O)c1c(CC(C)C)csc1NC=O | -66.7 | 14.6 µM [falling, partial curve] | 6.51 µM [rising, single point]
6 | CN([C@@H](C(=O)OC(C)(C)C)c1ccccc1)S(=O)(=O)c1cccc(S(=O)(=O)N(C)[C@@H](C(=O)OC(C)(C)C)c2ccccc2)c1 | 73.8 | 20.6 µM [rising, partial curve] | –
7 | Cc1cc(C(=O)OCC(=O)Nc2cc(S(=O)(=O)N(C)C)ccc2C)c(C)o1 | -56.8 | 20.6 µM [falling, single point] | 18.4 µM [falling, partial curve]
8 | O=C(NC(=S)Nc1ccccc1N1CCOCC1)c1cccs1 | -2.22 | – | 1.64 µM [rising, partial curve]
9 | Clc1cccc(CNCCNCc2cccc(Cl)c2)c1 | 53.6 | 5.8 µM [rising, partial curve] | –
10 | Nc1cc(Cl)ccc1N1CCCC1 | 43.7 | 20.6 µM [rising, single point] | 29.1 µM [rising, single point]
11 | CC(C)COC(=O)Nc1nnc(Cc2ccccc2)s1 | 1.3 | 0.58 µM [rising, single point] | –
12 | COc1ccc(N2CCN(C(=O)c3ccc(Br)cc3)CC2)c([N+](=O)[O-])c1 | -31.5 | – | –
13 | COc1ccc(C)cc1S(=O)(=O)N(CC(=O)NCc1ccc(Cl)cc1)Cc1ccccc1 | 111 | 9.2 µM [rising, partial curve] | 14.6 µM [rising, partial curve]
14 | Cc1ccc(Cc2c(C)nc3nc(SCC(=O)NCCCN4CCCCC4)nn3c2C)cc1 | 31.4 | 13 µM [rising, partial curve, poor fit] | –
15 | Cc1sc2nc(C(C)Nc3ccccc3N3CCOCC3)[nH]c(=O)c2c1C (configuration not stated) | 40.4 | 20.6 µM [rising, single point] | 18.4 µM [falling, single point]
16 | COc1cc(OC)cc(-c2nnc(SCC(=O)N3CCOCC3)o2)c1 | -27.3 | – | 29.1 µM [falling, single point]
17 | NS(=O)(=O)c1ccc(NC(=O)COC(=O)c2ccc(Cl)nc2)cc1 | -51.7 | – | –
18 | Cc1ccc(CN=C2NC(=O)C(CC(=O)NCCc3ccccc3)S2)cc1 (configuration not stated) | 20.3 | – | –
19 | CCOc1ccc(NC(=S)NCCCN2CCN(C3CCCCC3)CC2)cc1 | -25 | – | 0.13 µM [falling, full curve, poor fit]
20 | CC1(C)Cc2c(c(N3CCOCC3)nc3sc4c(NN)ncnc4c23)CS1 | 2.81 | 6.51 µM [rising, single point] | 11.6 µM [rising, single point]

Records 6–16 from above:
Row | SMILES | cell number change [%] | AC50 [1] | AC50 [2]
6 | CN([C@@H](C(=O)OC(C)(C)C)c1ccccc1)S(=O)(=O)c1cccc(S(=O)(=O)N(C)[C@@H](C(=O)OC(C)(C)C)c2ccccc2)c1 | 73.8 | 20.6 µM [rising, partial curve] | –
7 | Cc1cc(C(=O)OCC(=O)Nc2cc(S(=O)(=O)N(C)C)ccc2C)c(C)o1 | -56.8 | 20.6 µM [falling, single point] | 18.4 µM [falling, partial curve]
8 | O=C(NC(=S)Nc1ccccc1N1CCOCC1)c1cccs1 | -2.22 | – | 1.64 µM [rising, partial curve]
9 | Clc1cccc(CNCCNCc2cccc(Cl)c2)c1 | 53.6 | 5.8 µM [rising, partial curve] | –
10 | Nc1cc(Cl)ccc1N1CCCC1 | 43.7 | 20.6 µM [rising, single point] | 29.1 µM [rising, single point]
11 | CC(C)COC(=O)Nc1nnc(Cc2ccccc2)s1 | 1.3 | 0.58 µM [rising, single point] | –
12 | COc1ccc(N2CCN(C(=O)c3ccc(Br)cc3)CC2)c([N+](=O)[O-])c1 | -31.5 | – | –
13 | COc1ccc(C)cc1S(=O)(=O)N(CC(=O)NCc1ccc(Cl)cc1)Cc1ccccc1 | 111 | 9.2 µM [rising, partial curve] | 14.6 µM [rising, partial curve]
14 | Cc1ccc(Cc2c(C)nc3nc(SCC(=O)NCCCN4CCCCC4)nn3c2C)cc1 | 31.4 | 13 µM [rising, partial curve, poor fit] | –
15 | Cc1sc2nc(C(C)Nc3ccccc3N3CCOCC3)[nH]c(=O)c2c1C (configuration not stated) | 40.4 | 20.6 µM [rising, single point] | 18.4 µM [falling, single point]
16 | COc1cc(OC)cc(-c2nnc(SCC(=O)N3CCOCC3)o2)c1 | -27.3 | – | 29.1 µM [falling, single point]

(next part)

Row | SMILES | cell number change [%] | AC50 [1] | AC50 [2]
21 | COc1ccccc1CNC(=O)C(=O)NCC1OCCN1C(=O)c1ccc(Cl)cc1 (configuration not stated) | 6.59 | – | –
22 | O=C(NNS(=O)(=O)c1ccccc1)c1ccc(S(=O)(=O)N2CCCCC2)cc1 | 0.911 | – | –
23 | CCc1ccc(C(=O)NNC(=O)C2CC(=O)N(c3ccc4c(c3)OCCO4)C2)cc1 (configuration not stated) | 9.39 | – | 8.2 µM [rising, partial curve, poor fit]
24 | Cn1c(SCc2ccccc2)nnc1-c1ccncc1 | -4.26 | 0.651 µM [falling, single point] | 0.651 µM [falling, partial curve, poor fit]
25 | COc1ccc(C(=O)CSc2nnc(-c3ccccn3)n2Cc2ccco2)cc1 | 2.51 | – | 8.2 µM [rising, partial curve]
26 | CNC(=S)N1CCc2cc(OC)c(OC)cc2C1COc1ccc(OC)cc1 (configuration not stated) | -6.23 | – | –
27 | Cc1ccc(NC(=S)/N=C(\N)Nc2nc(C)c3cc(C)c(C)cc3n2)cc1C | 127 | 13 µM [rising, partial curve] | 0.651 µM [rising, partial curve, poor fit]
28 | CCCCOCC1CN(c2ccccc2)C(=O)CS1 (configuration not stated) | -3.84 | – | 3.26 µM [rising, single point]
29 | CN1CC=C2C(C#N)=C(N)C(C#N)(C#N)C(Cc3ccccc3)C2C1 (configuration not stated) | – | 2.59 µM [rising, partial curve] | –
30 | CC(C(=O)NC1CCCCCC1)n1cc([N+](=O)[O-])cn1 (configuration not stated) | -7.62 | – | 29.1 µM [falling, partial curve]
31 | CN(C)CCNC(=O)NC1CCCCC1 | 4.05 | – | 32.6 µM [falling, single point]
32 | CNC(=S)N/N=C(\C)c1ccc(C(C)(C)C)cc1 | -21.6 | – | 29.1 µM [falling, single point]
33 | COc1ccc(Cl)c(NC(=O)C/C(C)=N/NC(=O)CCc2ccccc2)c1 | -13.5 | – | –
34 | COc1ccc2c(c1)C1(Nc3ccccc3-c3nc4ccccc4n31)C(=O)N2C (configuration not stated) | -33.4 | 32.6 µM [falling, single point] | –
35 | COc1cc(CNc2ccc3[nH]c(=O)[nH]c3c2)ccc1OCc1ccccc1C | -14.1 | – | 10.3 µM [falling, single point]
36 | CCOC(=O)CSc1[nH]c2cc(OC)ccc2c1[N+](=O)[O-] | -19.5 | – | 4.11 µM [falling, full curve]
37 | O=C(CSc1nnc(COc2ccccc2)n1-c1ccccc1)c1ccccc1 | -11.3 | – | 0.082 µM [rising, full curve, poor fit]
38 | N#Cc1cnn2ccn(C3OC(CO)C(O)C3O)c12 (configuration not stated) | -16.1 | – | 0.00411 µM [falling, full curve, poor fit]
39 | Cc1ccccc1-c1ccc(C=Nc2c(C)n(C)n(-c3ccccc3)c2=O)o1 | 3.41 | 0.00461 µM [falling, full curve, poor fit] | 0.731 µM [falling, full curve]
40 | COc1ccc(C(C(=O)NC2CCCC2)N(Cc2cccnc2)C(=O)c2snc(C(N)=O)c2N)cc1OC (configuration not stated) | 15.4 | – | –

Row | SMILES | cell number change [%] | AC50 [1] | AC50 [2]
41 | COc1ccc(-c2ccnc3c(C(=O)O)cnn23)cc1 | – | – | 6.51 µM [falling, single point]
42 | Cc1nn(-c2ccccc2)c(Cl)c1C(=O)Nc1nnc(C2CCCC2)s1 | -14.4 | – | 8.2 µM [rising, partial curve, poor fit]
43 | O=C(NC1=NCCS1)c1cccc(S(=O)(=O)N2CCCCC2)c1 | 5.77 | 0.651 µM [rising, partial curve] | –
44 | O=C(Oc1ccc(Cl)cc1N1C(=O)CCC1=O)c1ccco1 | -124 | 23.1 µM [falling, partial curve] | 25.9 µM [falling, partial curve]
45 | O=C(Nc1ccccc1N1CCOCC1)C1=NN(c2c(F)c(F)cc(F)c2F)C(=O)CC1 | -12.1 | – | 20.6 µM [falling, partial curve, poor fit]
46 | CCN(C(=O)c1coc(=O)c2ccccc12)c1cc(OC)ccc1OC | 108 | 9.2 µM [rising, partial curve] | 2.91 µM [rising, partial curve]
47 | COc1cccc(S(=O)(=O)NCc2ccc(C(=O)Nc3ccc(Cl)cc3)cc2)c1 | -19.6 | – | 32.6 µM [falling, single point]
48 | O=c1[nH]c(C2CCN(S(=O)(=O)c3cccc([N+](=O)[O-])c3)CC2)nc2c1nnn2Cc1ccccc1 | -8.97 | – | –
49 | CC(C)CNS(=O)(=O)c1cc(C(=O)N2CCOCC2)c(Cl)cc1Cl | – | 0.116 µM [falling, full curve, poor fit] | –
50 | CCCCC(=O)NC(=S)Nc1cccc(NC(=O)c2ccccc2)c1 | 14.6 | – | 4.61 µM [rising, full curve, poor fit]
51 | O=C(CNC(=O)c1nc[nH]c1C(=O)NCc1ccccc1)OCc1ccccc1 | 33.5 | – | –
52 | COC(=O)/C(=C\Nc1ccc(Cl)c2ccccc12)c1ncc(C(F)(F)F)cc1Cl | – | 0.517 µM [rising, partial curve] | –
53 | CC1CCN(c2ccccc2NC(=S)NC(=O)c2ccc(-c3cccc([N+](=O)[O-])c3)o2)CC1 | 1.91 | – | 0.231 µM [rising, full curve, poor fit]
54 | CC1(c2ccccc2)NC(=O)N(CC#N)C1=O (configuration not stated) | -10.9 | 0.206 µM [falling, full curve] | –
55 | CCC1(C)Cc2c(sc3nnn(CC(=O)Nc4ccccc4)c(=O)c23)CO1 (configuration not stated) | -13.7 | 6.51 µM [rising, single point] | 6.51 µM [rising, partial curve, poor fit]
56 | N#Cc1ncc(-c2ccc3c(c2)OCCOCCOCCOCCOCCO3)nc1C#N | -52.4 | 23.1 µM [falling, partial curve, poor fit] | 25.9 µM [falling, partial curve]
57 | c1ccc(CSc2ccc(-c3cccs3)nn2)nc1 | -0.11 | 1.46 µM [rising, partial curve, poor fit] | 5.8 µM [rising, partial curve, poor fit]
58 | O=C(Cn1nc(C(F)F)cc1C1CC1)N1CCCC1 | -25.6 | – | –
59 | CN(CC(=O)NCCc1ccc(F)cc1)Cc1ccc(Br)cc1 | -25.7 | – | –
